Experimental data taken from paper PMC12084343.
Results are given in words; binding and its absence hold for the method and conditions named. In cells and extracts the contact can be indirect. These calls come from enrichment with a bait or labelling near it, and not all partners need be listed.

Target: T1, Cyclin A (Drosophila) (UniProt P14785)
T1 sequence: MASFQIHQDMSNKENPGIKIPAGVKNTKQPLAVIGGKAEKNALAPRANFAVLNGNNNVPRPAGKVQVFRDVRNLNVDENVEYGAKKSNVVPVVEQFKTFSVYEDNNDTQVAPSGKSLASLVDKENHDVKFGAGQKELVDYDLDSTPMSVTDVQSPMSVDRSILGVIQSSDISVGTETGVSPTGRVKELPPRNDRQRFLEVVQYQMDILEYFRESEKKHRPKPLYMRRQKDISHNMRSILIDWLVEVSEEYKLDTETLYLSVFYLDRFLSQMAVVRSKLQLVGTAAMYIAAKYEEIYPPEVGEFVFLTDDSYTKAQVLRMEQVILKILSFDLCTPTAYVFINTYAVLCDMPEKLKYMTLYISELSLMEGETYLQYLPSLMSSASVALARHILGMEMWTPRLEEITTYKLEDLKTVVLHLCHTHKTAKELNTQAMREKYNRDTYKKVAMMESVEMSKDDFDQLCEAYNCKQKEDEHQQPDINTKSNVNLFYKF
Assay: affinity purification with mass spectrometry; immunoprecipitates from S2 cells expressing Meru^WT or Meru^RxL in the presence of Cdk1 and CycA; S-Trap digest, Orbitrap Eclipse, MaxQuant; duplicate samples

Q: For “Meru (full-length, wild-type) (Drosophila)”, which binding is on record?
A: binds
